Data from doi:10.1101/188383.
No constants are given. Whether binding was seen depends on the method and setting. Binding seen in cells or lysates may run through a third protein. Some entries that bind do so weakly or less than the wild type.

The chains behind the UniProt entries cited, without tags or fusion partners. Residues count along the entry.
UniProt P24605, 17-137: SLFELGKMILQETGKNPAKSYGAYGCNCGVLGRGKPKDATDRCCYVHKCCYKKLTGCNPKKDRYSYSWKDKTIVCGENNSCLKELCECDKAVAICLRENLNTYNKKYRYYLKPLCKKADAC
UniProt P09405, whole entry: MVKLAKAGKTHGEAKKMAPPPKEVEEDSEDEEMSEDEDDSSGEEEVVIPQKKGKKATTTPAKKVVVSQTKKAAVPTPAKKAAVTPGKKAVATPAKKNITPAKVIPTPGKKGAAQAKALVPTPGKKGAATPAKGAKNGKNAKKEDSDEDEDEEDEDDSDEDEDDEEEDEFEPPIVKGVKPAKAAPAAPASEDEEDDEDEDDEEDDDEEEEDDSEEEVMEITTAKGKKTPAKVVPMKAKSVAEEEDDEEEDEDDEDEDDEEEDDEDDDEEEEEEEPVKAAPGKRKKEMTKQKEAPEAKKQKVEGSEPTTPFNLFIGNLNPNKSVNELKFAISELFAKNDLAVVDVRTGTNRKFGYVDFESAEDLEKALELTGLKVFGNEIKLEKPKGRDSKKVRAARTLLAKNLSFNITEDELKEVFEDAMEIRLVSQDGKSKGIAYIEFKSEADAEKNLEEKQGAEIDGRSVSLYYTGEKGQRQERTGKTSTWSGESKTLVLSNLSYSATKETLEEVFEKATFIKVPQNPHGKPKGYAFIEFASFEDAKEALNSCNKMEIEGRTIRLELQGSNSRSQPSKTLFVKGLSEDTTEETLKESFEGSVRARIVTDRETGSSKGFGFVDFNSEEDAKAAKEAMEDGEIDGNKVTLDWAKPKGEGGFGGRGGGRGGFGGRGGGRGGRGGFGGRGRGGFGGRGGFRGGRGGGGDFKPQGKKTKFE

Biological target: Biotinylated Bothrops asper myotoxin II (Bothrops asper) (UniProt P24605)
Assay: pull-down

Nucleolin (from UniProt P09405 1-707)
binding: binds
